The list shows a part of the results.

Sequences of proteins named here, by UniProt entry; tags and fusion partners are left off. A change or cut given only in a name is not applied to a line headed by its entry.
UniProt Q49B96: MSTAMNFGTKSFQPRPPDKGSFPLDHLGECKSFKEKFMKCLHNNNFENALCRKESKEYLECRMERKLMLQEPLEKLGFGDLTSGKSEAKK
UniProt A4D0V7: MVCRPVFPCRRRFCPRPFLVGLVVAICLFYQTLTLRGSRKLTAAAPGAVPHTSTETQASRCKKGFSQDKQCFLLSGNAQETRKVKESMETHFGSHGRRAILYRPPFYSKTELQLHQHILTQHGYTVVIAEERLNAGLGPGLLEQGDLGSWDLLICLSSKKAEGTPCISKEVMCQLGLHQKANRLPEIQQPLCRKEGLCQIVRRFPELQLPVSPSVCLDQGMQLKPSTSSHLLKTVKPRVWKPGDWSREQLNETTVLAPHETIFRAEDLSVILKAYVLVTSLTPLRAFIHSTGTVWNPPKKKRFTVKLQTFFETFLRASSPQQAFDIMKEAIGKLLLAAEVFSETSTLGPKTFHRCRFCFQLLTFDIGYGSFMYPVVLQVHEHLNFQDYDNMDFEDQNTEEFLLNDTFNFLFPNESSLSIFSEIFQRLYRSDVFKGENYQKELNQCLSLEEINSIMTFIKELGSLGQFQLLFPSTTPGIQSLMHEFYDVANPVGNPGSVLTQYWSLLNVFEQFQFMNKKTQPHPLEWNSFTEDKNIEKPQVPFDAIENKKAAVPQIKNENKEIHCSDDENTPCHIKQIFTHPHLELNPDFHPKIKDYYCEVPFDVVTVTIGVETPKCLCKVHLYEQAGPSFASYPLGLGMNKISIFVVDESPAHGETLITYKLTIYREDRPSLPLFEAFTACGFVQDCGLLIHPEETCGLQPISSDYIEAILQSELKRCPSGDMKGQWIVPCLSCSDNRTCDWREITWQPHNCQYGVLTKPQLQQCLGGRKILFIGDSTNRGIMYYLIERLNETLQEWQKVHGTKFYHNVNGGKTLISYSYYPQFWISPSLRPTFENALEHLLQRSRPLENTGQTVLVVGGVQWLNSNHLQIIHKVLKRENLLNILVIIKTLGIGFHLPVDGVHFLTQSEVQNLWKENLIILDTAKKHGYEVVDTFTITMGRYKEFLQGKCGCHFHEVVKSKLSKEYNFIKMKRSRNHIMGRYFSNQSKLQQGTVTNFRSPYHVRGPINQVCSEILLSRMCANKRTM
UniProt Q9ULV4, whole entry, looked up: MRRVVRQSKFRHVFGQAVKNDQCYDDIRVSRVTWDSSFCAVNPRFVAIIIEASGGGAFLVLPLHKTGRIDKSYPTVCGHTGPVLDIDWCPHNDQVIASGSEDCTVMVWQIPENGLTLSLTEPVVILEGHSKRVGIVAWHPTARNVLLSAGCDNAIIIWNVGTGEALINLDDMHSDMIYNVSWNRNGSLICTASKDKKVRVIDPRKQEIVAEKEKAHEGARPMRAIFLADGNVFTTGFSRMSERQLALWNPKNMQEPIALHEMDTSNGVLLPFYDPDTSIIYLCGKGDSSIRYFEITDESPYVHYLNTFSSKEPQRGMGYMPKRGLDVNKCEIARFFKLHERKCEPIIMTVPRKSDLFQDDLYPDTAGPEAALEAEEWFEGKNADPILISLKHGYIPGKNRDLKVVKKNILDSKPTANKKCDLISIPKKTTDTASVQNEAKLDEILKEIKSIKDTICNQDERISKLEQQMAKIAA
UniProt P12074, whole entry, looked up: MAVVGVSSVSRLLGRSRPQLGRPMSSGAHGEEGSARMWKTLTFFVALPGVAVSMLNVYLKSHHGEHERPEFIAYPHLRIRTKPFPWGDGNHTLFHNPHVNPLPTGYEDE
UniProt Q9UBI1, whole entry, looked up: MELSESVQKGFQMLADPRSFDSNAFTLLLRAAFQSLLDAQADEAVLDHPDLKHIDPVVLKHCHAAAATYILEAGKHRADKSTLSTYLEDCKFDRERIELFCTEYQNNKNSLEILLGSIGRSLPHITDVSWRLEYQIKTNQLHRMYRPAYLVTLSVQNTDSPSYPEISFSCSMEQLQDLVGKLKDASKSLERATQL
UniProt Q9Y2Z9: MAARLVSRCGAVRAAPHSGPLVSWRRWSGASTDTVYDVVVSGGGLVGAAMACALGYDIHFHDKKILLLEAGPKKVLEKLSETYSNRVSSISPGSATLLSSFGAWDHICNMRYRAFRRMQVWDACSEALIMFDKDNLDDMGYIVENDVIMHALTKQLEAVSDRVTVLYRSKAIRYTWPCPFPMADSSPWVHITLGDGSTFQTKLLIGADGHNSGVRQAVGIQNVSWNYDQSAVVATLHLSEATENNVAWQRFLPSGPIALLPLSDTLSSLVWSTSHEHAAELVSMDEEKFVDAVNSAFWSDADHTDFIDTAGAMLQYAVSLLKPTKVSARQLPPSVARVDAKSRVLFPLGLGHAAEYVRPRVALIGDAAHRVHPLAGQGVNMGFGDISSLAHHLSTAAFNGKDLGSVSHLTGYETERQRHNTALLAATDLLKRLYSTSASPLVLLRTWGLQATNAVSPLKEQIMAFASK
UniProt Q9Y6M4: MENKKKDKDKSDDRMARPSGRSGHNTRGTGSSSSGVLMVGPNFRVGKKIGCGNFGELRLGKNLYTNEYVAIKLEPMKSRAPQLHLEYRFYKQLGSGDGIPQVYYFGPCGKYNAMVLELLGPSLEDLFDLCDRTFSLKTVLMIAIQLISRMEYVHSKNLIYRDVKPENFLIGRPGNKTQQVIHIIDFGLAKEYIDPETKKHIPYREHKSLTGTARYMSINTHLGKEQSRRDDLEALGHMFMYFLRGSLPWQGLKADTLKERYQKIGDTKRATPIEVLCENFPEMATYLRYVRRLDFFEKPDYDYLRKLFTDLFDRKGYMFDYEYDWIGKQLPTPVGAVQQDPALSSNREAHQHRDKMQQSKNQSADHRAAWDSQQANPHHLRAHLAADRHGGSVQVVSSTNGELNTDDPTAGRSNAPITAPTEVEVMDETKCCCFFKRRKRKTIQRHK
UniProt O75718: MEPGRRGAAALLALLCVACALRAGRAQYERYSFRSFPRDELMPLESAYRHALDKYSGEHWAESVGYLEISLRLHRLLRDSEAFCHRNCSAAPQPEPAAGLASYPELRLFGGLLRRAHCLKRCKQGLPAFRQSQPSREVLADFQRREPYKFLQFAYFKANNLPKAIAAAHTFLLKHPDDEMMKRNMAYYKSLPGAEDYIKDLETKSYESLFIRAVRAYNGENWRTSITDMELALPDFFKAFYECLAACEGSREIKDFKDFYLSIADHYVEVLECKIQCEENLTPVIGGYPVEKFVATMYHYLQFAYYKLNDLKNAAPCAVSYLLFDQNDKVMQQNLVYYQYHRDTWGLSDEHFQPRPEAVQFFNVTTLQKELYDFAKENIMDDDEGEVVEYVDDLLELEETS
UniProt Q7L5N1: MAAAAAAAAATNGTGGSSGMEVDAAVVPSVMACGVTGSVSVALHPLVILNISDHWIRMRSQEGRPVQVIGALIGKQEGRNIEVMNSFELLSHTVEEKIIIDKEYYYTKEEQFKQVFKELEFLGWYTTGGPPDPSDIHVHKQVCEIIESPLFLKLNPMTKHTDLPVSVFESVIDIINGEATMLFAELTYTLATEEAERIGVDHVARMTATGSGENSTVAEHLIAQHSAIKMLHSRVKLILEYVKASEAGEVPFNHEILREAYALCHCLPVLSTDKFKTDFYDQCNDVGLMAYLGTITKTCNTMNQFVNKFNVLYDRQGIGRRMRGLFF
UniProt Q7Z4G1, whole entry, looked up: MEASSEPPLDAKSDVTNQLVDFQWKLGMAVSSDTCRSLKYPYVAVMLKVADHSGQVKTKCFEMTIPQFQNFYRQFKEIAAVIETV
UniProt Q9Y6N1: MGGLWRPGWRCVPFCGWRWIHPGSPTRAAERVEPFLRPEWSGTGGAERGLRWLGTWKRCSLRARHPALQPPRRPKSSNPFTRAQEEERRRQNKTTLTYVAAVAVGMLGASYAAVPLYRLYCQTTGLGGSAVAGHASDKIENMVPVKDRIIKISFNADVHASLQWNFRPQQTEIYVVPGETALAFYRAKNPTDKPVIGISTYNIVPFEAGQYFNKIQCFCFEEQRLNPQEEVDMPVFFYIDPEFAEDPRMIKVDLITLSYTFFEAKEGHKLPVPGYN
UniProt Q14019: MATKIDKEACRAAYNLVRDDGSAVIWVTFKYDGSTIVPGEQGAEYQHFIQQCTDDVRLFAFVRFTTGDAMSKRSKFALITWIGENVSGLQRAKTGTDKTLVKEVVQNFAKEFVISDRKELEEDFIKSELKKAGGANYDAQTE
UniProt P09669, whole entry, looked up: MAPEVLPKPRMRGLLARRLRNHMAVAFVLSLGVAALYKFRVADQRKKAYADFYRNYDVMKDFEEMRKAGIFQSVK
UniProt O14548: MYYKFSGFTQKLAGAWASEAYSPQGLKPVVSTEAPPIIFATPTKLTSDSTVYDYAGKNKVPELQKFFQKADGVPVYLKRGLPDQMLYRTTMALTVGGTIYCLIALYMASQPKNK
UniProt O75629: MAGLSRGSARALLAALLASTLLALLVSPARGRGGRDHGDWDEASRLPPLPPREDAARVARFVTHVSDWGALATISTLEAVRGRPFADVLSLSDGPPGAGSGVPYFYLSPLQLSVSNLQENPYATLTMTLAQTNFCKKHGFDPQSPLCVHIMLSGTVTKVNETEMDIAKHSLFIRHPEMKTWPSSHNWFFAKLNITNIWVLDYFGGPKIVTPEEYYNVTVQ
UniProt Q6UXH1: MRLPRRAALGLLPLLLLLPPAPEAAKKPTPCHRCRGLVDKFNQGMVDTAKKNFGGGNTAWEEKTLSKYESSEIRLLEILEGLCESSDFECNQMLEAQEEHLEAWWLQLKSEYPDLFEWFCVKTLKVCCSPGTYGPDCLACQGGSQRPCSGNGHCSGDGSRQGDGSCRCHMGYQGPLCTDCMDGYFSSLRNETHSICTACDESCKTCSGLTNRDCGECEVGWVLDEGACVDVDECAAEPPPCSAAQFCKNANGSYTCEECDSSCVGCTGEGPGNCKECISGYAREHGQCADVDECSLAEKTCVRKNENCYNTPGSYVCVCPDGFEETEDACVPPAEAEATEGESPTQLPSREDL
UniProt P02511: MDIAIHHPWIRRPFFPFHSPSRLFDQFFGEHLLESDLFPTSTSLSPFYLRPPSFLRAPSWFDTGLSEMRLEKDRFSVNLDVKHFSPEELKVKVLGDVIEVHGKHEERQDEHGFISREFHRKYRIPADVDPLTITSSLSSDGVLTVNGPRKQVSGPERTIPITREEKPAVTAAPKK
UniProt P53621: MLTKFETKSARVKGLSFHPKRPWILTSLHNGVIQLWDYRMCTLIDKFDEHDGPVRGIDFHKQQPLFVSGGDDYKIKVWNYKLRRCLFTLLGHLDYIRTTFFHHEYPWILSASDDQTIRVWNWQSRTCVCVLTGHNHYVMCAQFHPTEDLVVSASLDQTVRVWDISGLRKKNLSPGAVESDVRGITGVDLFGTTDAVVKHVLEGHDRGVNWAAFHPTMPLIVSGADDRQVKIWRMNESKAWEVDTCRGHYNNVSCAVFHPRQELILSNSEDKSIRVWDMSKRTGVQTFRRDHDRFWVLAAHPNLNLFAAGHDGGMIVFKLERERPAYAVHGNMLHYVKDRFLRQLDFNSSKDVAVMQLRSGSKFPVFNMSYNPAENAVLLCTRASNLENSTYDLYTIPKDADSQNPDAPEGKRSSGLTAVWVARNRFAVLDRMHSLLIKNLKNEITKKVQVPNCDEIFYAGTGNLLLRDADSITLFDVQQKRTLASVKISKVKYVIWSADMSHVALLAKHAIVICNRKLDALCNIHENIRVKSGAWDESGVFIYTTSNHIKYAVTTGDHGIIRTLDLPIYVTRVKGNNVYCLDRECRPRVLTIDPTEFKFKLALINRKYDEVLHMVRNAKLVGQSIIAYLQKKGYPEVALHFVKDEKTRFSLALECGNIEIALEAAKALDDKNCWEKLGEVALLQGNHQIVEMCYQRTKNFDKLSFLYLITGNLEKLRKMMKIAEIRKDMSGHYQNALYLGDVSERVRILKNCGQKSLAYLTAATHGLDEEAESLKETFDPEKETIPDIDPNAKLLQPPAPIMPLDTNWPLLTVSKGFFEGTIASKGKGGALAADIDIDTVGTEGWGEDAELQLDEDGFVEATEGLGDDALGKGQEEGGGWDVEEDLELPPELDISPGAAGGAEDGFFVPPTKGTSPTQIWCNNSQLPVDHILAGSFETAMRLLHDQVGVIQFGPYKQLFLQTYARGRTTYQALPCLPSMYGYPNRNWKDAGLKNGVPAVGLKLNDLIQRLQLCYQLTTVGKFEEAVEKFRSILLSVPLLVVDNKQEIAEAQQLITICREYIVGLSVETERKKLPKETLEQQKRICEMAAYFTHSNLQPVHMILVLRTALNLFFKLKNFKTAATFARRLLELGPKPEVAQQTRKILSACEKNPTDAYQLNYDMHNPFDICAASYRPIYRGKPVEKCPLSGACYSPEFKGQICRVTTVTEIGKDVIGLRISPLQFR
UniProt Q9H9Q2: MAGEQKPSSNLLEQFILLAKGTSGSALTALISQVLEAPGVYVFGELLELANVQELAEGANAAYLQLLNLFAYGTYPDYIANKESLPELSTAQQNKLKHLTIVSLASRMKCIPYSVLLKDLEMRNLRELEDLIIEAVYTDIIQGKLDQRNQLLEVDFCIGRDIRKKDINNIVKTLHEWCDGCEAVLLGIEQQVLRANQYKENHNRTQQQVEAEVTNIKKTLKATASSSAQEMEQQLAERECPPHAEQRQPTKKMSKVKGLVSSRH
UniProt Q9P021, whole entry, looked up: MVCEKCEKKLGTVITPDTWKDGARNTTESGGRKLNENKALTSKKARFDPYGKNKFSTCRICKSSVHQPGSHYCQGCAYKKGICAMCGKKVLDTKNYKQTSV

Compound in this test: c1cn2cc(-c3ccc4cn[nH]c4c3)nc(Nc3ccc(N4CCOCC4)cc3)c2n1 [entospletinib]
Nature of the test: log2 fold change, soluble protein after heating vs DMSO (PISA); higher = thermal stabilisation; K562 cells, 10 uM, 30 min; active = over 0.2 and 3.5 SD of the protein, either way, in both replicates (recomputed). In a few lines: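 K562 cells at 2×10^6 cells/mL were treated with 10 μM compound for 30 min. Aliquots were heated for 3 min across 48°C-58°C, pooled, and extracted in PBS with 0.5% NP-40 at 4°C; soluble protein was the supernatant after 21,000xg for 90 min. Soluble protein was quantified by TMTpro 16plex LC-MS/MS with channel sums equalised, and reported as log2 fold change in thermal stability against DMSO controls, with values from duplicates.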
For the target COX19 (UniProt Q49B96), the log2 fold change is inactive: -0.016. COL6A3 (UniProt P12111): the log2 fold change is inactive: 0.058. Turning to CPED1 (UniProt A4D0V7), the log2 fold change is inactive: -0.037.

As to CORO1B (UniProt Q9BR76), the log2 fold change was inactive: -0.005. Consider CORO1C isoform 3 (UniProt Q9ULV4), for which the log2 fold change is inactive: -0.074. Then COX6A1 (UniProt P12074), with inactive: 0.15; and COMMD10 (UniProt Q9Y6G5), with inactive: -0.037.

On to COMMD3 (UniProt Q9UBI1), for which the log2 fold change is inactive: 0.049. Then CRBN (UniProt Q96SW2), with inactive: -0.009. Then COQ6 (UniProt Q9Y2Z9), with inactive: 0; and CRIP2 isoform 2 (UniProt P52943), with inactive: 0.014. Then CSNK1G3 (UniProt Q9Y6M4), with inactive: 0.099. For the target COQ3 (UniProt Q9NZJ6), the log2 fold change is inactive: -0.007. With CRTAP (UniProt O75718), the log2 fold change is inactive: 0.04. Then COPS6 (UniProt Q7L5N1), with inactive: 0.04. The result for COMMD6 isoform 2 (UniProt Q7Z4G1) reads inactive: -0.035; that for COPB1 (UniProt P53618), inactive: -0.019. The result for COX11 (UniProt Q9Y6N1) reads inactive: -0.033. Turning to COTL1 (UniProt Q14019), the log2 fold change is inactive: -0.013. Then COX6C (UniProt P09669), with inactive: 0.035; and COX7A2L (UniProt O14548), with inactive: 0.033; and CREG1 (UniProt O75629), with inactive: 0.07.

For the target CRYZL1 (UniProt O95825), the log2 fold change was inactive: -0.002. As for CRELD2 isoform 5 (UniProt Q6UXH1), the log2 fold change was inactive: 0.068. Consider CRYAB (UniProt P02511), for which the log2 fold change is inactive: -0.037. The result for COPA isoform 2 (UniProt P53621) reads inactive: -0.007; that for COPS7B (UniProt Q9H9Q2), inactive: 0.032. For CRIPT (UniProt Q9P021), the log2 fold change was inactive: 0.147.

For the origin of these results see the supplement of paper PMC10849652.
